Consider 1 compound from patent US6451848B1 (Nastech Pharmaceutical Company, Inc., priority 1999, dated 2002).

Like-named read-outs stand apart in the source and are kept apart here.

The conditions of data set [1]: human, n = 10.
A short description of data set [2]: clinical. Conditions: human, plasma, im, Average TMAX (time for the average peak concentration), n = 10.
The mark [3] stands for this setting: 2.5 mg I.M., listed as 1, Sulfate.
[4] abbreviates: 5 mg I.M., listed as 2, Sulfate.

What is called Tmax is the time from dosing to the highest level. With `CN1CC[C@]23c4c5ccc(O)c4O[C@H]2[C@@H](O)C=C[C@H]3[C@H]1C5.O=S(=O)(O)O` [Morphine Sulfate], the “Average CMAX (average peak plasma concentration of free morphine)” value in data set [1] (2.5 mg I.M., Sulfate) is “approximately 10.7 ng/ml”; in data set [1] (setting [3]) it was 10.7 ng/mL; in data set [1] (5 mg I.M., Sulfate), “approximately 10.7 ng/ml”; in data set [1] (setting [4]) it was 26.4 ng/mL. Further, the figures for the “Average TMAX (time for the average peak concentration)” value in data set [1] (setting [3]) and in data set [1] (setting [4]) were 10 min and 8 min, respectively. The time to peak (Tmax) in data set [2] (2.5 mg, 2.5 mg I.M.) is approximately 10 min; in data set [2] (5 mg, 5 mg I.M.) it was approximately 8 min.
